This note sets out measurements from publication PMC10650415, “Synthesis of Tetracyclic Spirooxindolepyrrolidine-Engrafted Hydantoin Scaffolds: Crystallographic Analysis, Molecular Docking Studies and Evaluation of Their Antimicrobial, Anti-Inflammatory and Analgesic Activities” (Molecules, 2023).

This test deals with Candida albicans ATCC 90028. As to the kind of experiment: MIC, in vitro micro diffusion method. It is filed as cell-based. To be noted: ATCC90028, C. albicans ATCC 90028. The text has this:
In this part, the spiropyrrolidines 4a–m were selected to be screening for their antimicrobial activities, using in vitro micro diffusion method, against multiple bacterial strains (Staphylocoocus aureus ATCC 25923, Escherichia coli ATCC 25922, Pseudomonas aeruginosa ATCC 27950, Micrococcus luteus NCIMB 8166), and two pathogenic reference yeasts namely Candida albicans ATCC 90028 and Candida kreusei ATCC 6258.

One may read the MIC as the lowest concentration found to suppress growth. A lower MIC goes with greater potency.

≈ marks a conversion by molar mass, not a printed value.

In the case of `C[C@@H]1[C@H](O)[C@@H](C)/C=C/C=C/C=C/C=C/C=C/C=C/C=C/[C@H](O[C@@H]2O[C@H](C)[C@@H](O)[C@H](N)[C@@H]2O)C[C@@H]2O[C@](O)(C[C@@H](O)C[C@@H](O)[C@H](O)CC[C@@H](O)C[C@@H](O)CC(=O)O[C@H]1C)C[C@H](O)[C@H]2C(=O)O` [Amphotericin B, reference compound], the MIC was found to be 31.2 µg/mL (≈ 33.8 µM).
